{"source": "patent US8158621B2", "about": "“Methods of treating or preventing autoimmune diseases with 2,4-pyrimidinediamine compounds” (Rigel Pharmaceuticals, Inc., priority 2002, dated 2012)", "key": {"[1]": {"system": "cultured human mast cells (CHMC)", "assay": "CHMC low cell density ionomycin activation: tryptase assay", "assay_type": "cell-based"}, "[2]": {"assay": "Rat collagen-induced arthritis (CIA)", "assay_type": "in vivo, LOU rats", "details": "Day 28; once daily 75 mg/kg/day, prevention regimen", "procedure": "In both protocols, clinical scores were obtained daily, and body weights are measured twice weekly. At Day 28, radiographic scores were obtained, and scrum levels of collagen II antibody were measured by ELISA."}, "[3]": {"system": "IgE-induced degranulation of tissue mast cells", "assay": "Mouse model of passive cutaneous anaphylaxis (PCA)", "assay_type": "in vivo", "details": "positive controls", "procedure": "This model provides a direct measure of IgE-induced degranulation of tissue mast cells. In this model, IgE primed animals are exposed to an allergen challenge, and the change in permeability of dermal vasculature that results from histamine release from mast cells is measured by change in the amount of dye leakage into surrounding tissue. Inhibition of mediator release by compounds that modulate mast cell degranulation is easily measured by extracting the dye from the tissue.\nIn the PCA assay mice are passively sensitized by intradermal injection with anti-dinitrophenol (DNP) IgE antibodies (Day −1). At predetermined times animals are treated with the test agent (Day 0). The modulatory effect of the agent on cutaneous mast cell degranulation is measured following intravenous injection of DNP conjugated to human serum albumin (HSA-DNP), together with Evans blue dye. The resulting cross-linking of the IgE receptor and subsequent mast cell degranulation-induced increase in vascular permeability is determined by measuring the amount of dye extravasation into the tissue. Dye is extracted from the tissue by formamide, and the absorbance of this extract is read at 620 nm."}}, "note": "For at least one compound, name, drawing or mass did not settle the structure.", "data": [{"compound": "CN1C=COc2ccc(Nc3nc(Nc4cccc(O)c4)ncc3F)cc21", "note": "[Compound R908710]", "values": [{"measurement": "IC50", "setting": "[1]", "result": 99, "unit": "µM"}]}, {"compound": "Nc1cccc(Nc2ncc(F)c(Nc3cccc(N)c3)n2)c1", "note": "[Compound R921302]", "values": [{"measurement": "Blinded radiographic scores (scale 0-6)", "setting": "[2]", "result": "2.5±0.0.16"}]}, {"compound": "CN1CCC(=C2c3ccccc3C=Cc3ccccc32)CC1", "note": "[cyproheptadine, reference compound]", "values": [{"measurement": "PCA response", "setting": "[3]", "result": "inhibit the PCA response"}]}]}
